Laboratory results: PubChem BioAssay AID1671195 (Yale University, 2021)
In all, the deposit lists about 22,000 reagents; below is an unselected part. About 1,510 of them (6.9%) were called active. 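Active includes knockdowns raising or lowering LDL uptake; positive z-scores mean more uptake, negative mean less.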

- Assay: 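Knockdowns that increase or decrease uptake of fluorescent LDL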 (primary screen)
- System: human Huh7 hepatoma cells
- Knock-down reagent: siRNA pool against human genes, 18 nM
- Timing: about 2 to 2.5 days of knockdown, then 8 h LDL uptake
- Conditions: DiI-labelled LDL at 30 µg/ml for 8 h, in lipoprotein-deficient serum medium
- Detection: 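Fluorescent LDL signal imaged in cells, scaled to the plate median, robust z-score for each replicate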
- Reading the numbers: robust z-score: higher = more LDL uptake after knockdown
- Active means: 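a gene counts as active if at least two replicate z-scores exceed ±2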

CUL1 (GeneID 8454) showed robust z-score, replicate 1 = -0.675; robust z-score, replicate 2 = 2.07; robust z-score, replicate 3 = 0.621; inactive.
Knock-down of NLRC4 (GeneID 58484) came out at: robust z-score, replicate 1 = 1.71; robust z-score, replicate 2 = 2.19; robust z-score, replicate 3 = 0.86; inactive.
PRIMPOL (GeneID 201973) gave robust z-score, replicate 1 = 1.61; robust z-score, replicate 2 = 1.96; robust z-score, replicate 3 = 1.57; inactive.
For LOC440312 (retired record) (GeneID 440312), the values are robust z-score, replicate 1 = 0.559; robust z-score, replicate 2 = 0.928; robust z-score, replicate 3 = 0.709; inactive.
For GTF3C3 (GeneID 9330) the deposit lists robust z-score, replicate 1 = -1.7; robust z-score, replicate 2 = -1.79; robust z-score, replicate 3 = -1.57; inactive.
MUTYH (GeneID 4595) gave robust z-score, replicate 1 = 0.0457; robust z-score, replicate 2 = -0.496; robust z-score, replicate 3 = -0.268; inactive.
Against SHMT1 (GeneID 6470) the deposit lists robust z-score, replicate 1 = 0.568; robust z-score, replicate 2 = 1.67; robust z-score, replicate 3 = 2.36; inactive.
OLR1 (GeneID 4973) showed robust z-score, replicate 1 = 0.0209; robust z-score, replicate 2 = -0.563; robust z-score, replicate 3 = -0.473; inactive.
Against NUDCD3 (GeneID 23386) the deposit lists robust z-score, replicate 1 = -0.2; robust z-score, replicate 2 = 0.824; robust z-score, replicate 3 = -0.851; inactive.
After knock-down of AVL9 (GeneID 23080), the record shows robust z-score, replicate 1 = 0.815; robust z-score, replicate 2 = 0.13; robust z-score, replicate 3 = 1.46; inactive.
After knock-down of TGFBRAP1 (GeneID 9392) the results were robust z-score, replicate 1 = 2.15; robust z-score, replicate 2 = -1.24; robust z-score, replicate 3 = -0.547; inactive.
With knock-down of NUP93 (GeneID 9688), the record shows robust z-score, replicate 1 = 0.0491; robust z-score, replicate 2 = 0.779; robust z-score, replicate 3 = -1.71; inactive.
Knock-down of ATF7IP2 (GeneID 80063) came out at: robust z-score, replicate 1 = 2.39; robust z-score, replicate 2 = 2.92; robust z-score, replicate 3 = 2.17; active.
NATD1 (GeneID 256302) gave robust z-score, replicate 1 = 0.297; robust z-score, replicate 2 = 0.0411; robust z-score, replicate 3 = 0.179; inactive.
PICALM (GeneID 8301) showed robust z-score, replicate 1 = 0.747; robust z-score, replicate 2 = -0.727; robust z-score, replicate 3 = 0.328; inactive.
Knock-down of LOC389910 (retired record) (GeneID 389910) gave: robust z-score, replicate 1 = -1.62; robust z-score, replicate 2 = -1.87; robust z-score, replicate 3 = -1.54; inactive.

Only “robust z-score, replicate 3” (5 entries from above):
MUTYH (GeneID 4595) = -0.268
SHMT1 (GeneID 6470) = 2.36
OLR1 (GeneID 4973) = -0.473
NUDCD3 (GeneID 23386) = -0.851
AVL9 (GeneID 23080) = 1.46

Further reagents:
SLITRK6 (GeneID 84189) scored robust z-score, replicate 1 = -0.307; robust z-score, replicate 2 = -1.04; robust z-score, replicate 3 = -0.928; inactive.
After knock-down of RRS1 (GeneID 23212) the results were robust z-score, replicate 1 = 3.27; robust z-score, replicate 2 = 1.61; robust z-score, replicate 3 = 1.02; inactive.
Depletion of LINC00158 (GeneID 54072) gave: robust z-score, replicate 1 = 0.565; robust z-score, replicate 2 = 0.34; robust z-score, replicate 3 = 0.462; inactive.
After knock-down of CDK20 (GeneID 23552), the screen gave robust z-score, replicate 1 = 0.194; robust z-score, replicate 2 = 0.165; robust z-score, replicate 3 = 0.224; inactive.
RARS1 (GeneID 5917) showed robust z-score, replicate 1 = -0.0629; robust z-score, replicate 2 = -0.335; robust z-score, replicate 3 = -0.239; inactive.
CHORDC1 (GeneID 26973) gave robust z-score, replicate 1 = 4.58; robust z-score, replicate 2 = -1.65; robust z-score, replicate 3 = 0.608; inactive.
For SERPINH1 (GeneID 871) the deposit lists robust z-score, replicate 1 = -2.09; robust z-score, replicate 2 = -1.12; robust z-score, replicate 3 = -1.69; inactive.
For SLC1A2 (GeneID 6506), the entry reads robust z-score, replicate 1 = -0.118; robust z-score, replicate 2 = -0.69; robust z-score, replicate 3 = -0.433; inactive.
Depletion of CD70 (GeneID 970) gave: robust z-score, replicate 1 = -1.51; robust z-score, replicate 2 = -1.24; robust z-score, replicate 3 = -1.15; inactive.
Knock-down of CD9 (GeneID 928) resulted in: robust z-score, replicate 1 = 1.36; robust z-score, replicate 2 = 1.02; robust z-score, replicate 3 = 0.489; inactive.
With knock-down of ERP29 (GeneID 10961), the screen gave robust z-score, replicate 1 = -1.95; robust z-score, replicate 2 = -0.663; robust z-score, replicate 3 = -2.28; active.
With knock-down of LOC128629 (retired record) (GeneID 128629), the screen gave robust z-score, replicate 1 = -0.162; robust z-score, replicate 2 = -0.0573; robust z-score, replicate 3 = 0.406; inactive.
For IGSF6 (GeneID 10261), the entry reads robust z-score, replicate 1 = -0.374; robust z-score, replicate 2 = 0.0378; robust z-score, replicate 3 = 3.64; inactive.
GAA (GeneID 2548) gave robust z-score, replicate 1 = 2.64; robust z-score, replicate 2 = 1.74; robust z-score, replicate 3 = 2.6; active.
